Among the data in paper PMC3210151 (2011) are binding values, retold here.

Protein sequences, listed by entry. Tags and fused reporters are not part of them. Lines headed by an entry give the natural chain unless they say otherwise; changes in a name come on top. Chains listed by the source or under a name are the forms on record and can include a tag or linker.
MSPβ R689C (Phe465-Gly711, C672S, R689C) (P26927, form named): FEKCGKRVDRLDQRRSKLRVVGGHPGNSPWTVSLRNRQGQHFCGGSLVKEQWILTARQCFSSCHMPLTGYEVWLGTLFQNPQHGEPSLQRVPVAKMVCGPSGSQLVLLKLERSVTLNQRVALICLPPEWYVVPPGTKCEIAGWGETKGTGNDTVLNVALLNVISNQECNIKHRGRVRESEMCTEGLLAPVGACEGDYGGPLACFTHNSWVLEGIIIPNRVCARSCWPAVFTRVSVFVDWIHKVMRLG

No constants are given. Whether binding was seen depends on the method and setting.

In assay [1] the target is MSPβ R689C (Phe465-Gly711, C672S, R689C) (human, UniProt P26927 465-711, C672S | R689C). Nature of the assay: SEC-MALS; size exclusion chromatography and multiangle light scattering of purified MSPβ; both purified. Background: In gel filtration, larger molecules generally elute earlier.
In assay [2] the target is wild type MSPβ (macrophage stimulating protein β-chain with the adjoining 19 residues of the α-chain, Phe465-Gly711, C672S) (human) (UniProt P26927). The assay is described as above.

Turning to “MSPβ R689C (Phe465-Gly711, C672S, R689C) (from UniProt P26927 465-711) (domain or fragment)”, the binding result in assay [1] is recorded as “no binding”.
As to “wild type MSPβ (macrophage stimulating protein β-chain with the adjoining 19 residues of the α-chain, Phe465-Gly711, C672S) (from UniProt P26927 465-711) (domain or fragment)”, the binding entry in assay [2] was “no binding”.
